Assay results published in patent US20250034531A1, “METHOD FOR PRODUCING STEM CELLS” (priority 2021, published 2025).
For at least one compound, name, drawing or mass did not settle the structure.

Key:
[1] = test system: Human peripheral blood mononuclear cells; conditions: HMBPP in the medium changed to 5 μL of zoledronic acid, FIG. 2
Vγ9 gene = conditions: genomic DNA of the iPS cells; γδT cells as positive control; FIG. 4

O=P(O)(O)C(O)(Cn1ccnc1)P(=O)(O)O [zoledronic acid]
number of colonies of iPS cells compared with test 2 of Example 1 ([1]; test 2): significantly small | colonies of iPS cells formed ([1]; tests 1 and 3): colonies of the iPS cells were not formed | rearranged Vγ9 gene having the J1/J2 gene in the established iPS cells (Vγ9 gene): does not have a Vγ9 gene that has undergone rearrangement
